Measurements as given in patent publication US8299055B2, “8-substituted isoquinoline derivative and the use thereof” (Asahi Kasei Pharma Corporation, priority 2008, dated 2012).
Some of these results come from one statement about several compounds together. At least one structure is not confirmed: it was looked up by name or label, or the drawing left a doubt.

What was measured:
IKKβ = molecular target: T1, IKKβ (Homo sapiens, UniProt O14920); test: Measurement of IKKβ activity inhibiting ability (TR-FRET assay); assay type: biochemical; details: at 1 μM or lower
T1 construct: histidine tag (N); made in house; host or cells: Sf9 insect cells, baculovirus (Bac-to-Bac System, Invitrogen)
T1 sequence (O14920 1-756): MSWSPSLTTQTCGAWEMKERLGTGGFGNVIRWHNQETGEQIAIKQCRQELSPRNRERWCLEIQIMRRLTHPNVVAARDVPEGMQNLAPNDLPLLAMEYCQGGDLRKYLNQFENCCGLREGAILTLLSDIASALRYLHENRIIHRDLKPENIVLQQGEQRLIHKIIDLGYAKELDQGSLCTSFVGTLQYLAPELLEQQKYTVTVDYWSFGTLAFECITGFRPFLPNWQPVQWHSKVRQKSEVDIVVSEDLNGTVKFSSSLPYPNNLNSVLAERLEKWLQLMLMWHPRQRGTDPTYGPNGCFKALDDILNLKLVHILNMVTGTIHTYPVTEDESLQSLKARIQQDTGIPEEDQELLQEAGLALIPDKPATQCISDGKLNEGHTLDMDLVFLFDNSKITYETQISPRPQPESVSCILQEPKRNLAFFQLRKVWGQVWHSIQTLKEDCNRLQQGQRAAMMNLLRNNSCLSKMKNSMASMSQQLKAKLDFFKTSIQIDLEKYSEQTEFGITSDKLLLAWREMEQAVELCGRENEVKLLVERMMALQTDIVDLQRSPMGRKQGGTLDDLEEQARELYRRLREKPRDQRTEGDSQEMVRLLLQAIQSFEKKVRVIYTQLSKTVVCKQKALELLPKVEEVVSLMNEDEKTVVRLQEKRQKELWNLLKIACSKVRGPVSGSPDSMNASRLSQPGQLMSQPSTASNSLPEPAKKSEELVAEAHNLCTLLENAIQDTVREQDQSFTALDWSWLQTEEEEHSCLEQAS

[1] = test system: TNF-α production in THP-1 cells; test: TNF-α production suppressing ability (in vitro)-1, LPS-stimulated THP-1 cells; assay type: cell-based, human; details: at 5 μM or lower, LPS 2 μg/mL, 4 hours
[2] = test system: TNF-α production in mouse blood; test: TNF-α production suppressing ability (in vitro)-2, LPS added to mouse blood; assay type: cell-based; details: at 10 μM or lower; BALB/c mouse blood, LPS 5 μg/mL, 4 hours
[3] = test system: TNF-α production in rat blood; test: TNF-α production suppressing ability (in vitro)-3, LPS added to rat blood; assay type: cell-based; details: at 10 μM or lower; Lewis rat blood, LPS 20 μg/mL, 4 hours

| Structure (SMILES) | IKKβ activity inhibiting ability (IKKβ) [%] | TNF-α production suppression rate [1] [%] | TNF-α production suppression rate [2] [%] | TNF-α production suppression rate [3] [%] |
| --- | --- | --- | --- | --- |
| c1cncc(-c2cc(NC3CCNCC3)c3cnccc3c2)c1 [Example 1-N-34] | ≥ 50 | ≥ 50 |  |  |
| N#Cc1ccc(-c2cc(NC3CCNCC3)c3cnccc3c2)cc1 [Example 1-NP-36] | ≥ 50 |  |  |  |
| N#Cc1cccc(-c2cc(OCC3CNCCO3)c3cnccc3c2)c1 (stereo not drawn) [Example 1-o-18] | ≥ 50 | ≥ 50 |  |  |
| N#Cc1cccc(-c2cc(OCCNC3CCCCC3)c3cnccc3c2)c1 [Example 1-o-20] | ≥ 50 |  |  |  |
| N#Cc1cccc(-c2cc(OCCN3CCCCC3)c3cnccc3c2)c1 [Example 1-o-21] | ≥ 50 |  |  |  |
| C#CCOc1cc(-c2cccc(C#N)c2)cc2ccncc12 [Example 1-o-38] | ≥ 50 |  |  |  |
| N#Cc1cccc(-c2cc(OC3CCOC3)c3cnccc3c2)c1 (stereo not drawn) [Example 1-o-43] | ≥ 50 | ≥ 50 | ≥ 50 |  |
| COCCOc1cc(-c2cccc(C#N)c2)cc2ccncc12 [Example 1-o-47] | ≥ 50 |  |  |  |
| N#Cc1cccc(-c2cc(OC3CN[C@H](C(=O)O)C3)c3cnccc3c2)c1 (stereo partly drawn) [Example 1-o-51] | ≥ 50 |  |  |  |
| Cn1cncc1C(=O)N1CC(Oc2cc(-c3cccc(N)c3)cc3ccncc23)C1 [Example 1-oP-14] | ≥ 50 |  |  |  |
| COc1cccc(-c2cc(OC3CN(C(=O)c4cncn4C)C3)c3cnccc3c2)c1 [Example 1-oP-16] | ≥ 50 |  |  |  |
| Cc1cccc(-c2cc(OC3CN(C(=O)c4cncn4C)C3)c3cnccc3c2)c1 [Example 1-oP-17] | ≥ 50 | ≥ 50 |  |  |
| Cn1cncc1C(=O)N1CC(Oc2cc(-c3cccc(Br)c3)cc3ccncc23)C1 [Example 1-oP-35] | ≥ 50 | ≥ 50 |  |  |
| Cn1cncc1C(=O)N1CC(Oc2cc(-c3cccc(CO)c3)cc3ccncc23)C1 [Example 1-oP-42] | ≥ 50 |  |  |  |
| N#Cc1cccc(-c2cc(SC3CCNCC3)c3cnccc3c2)c1 [Example 1-s-1, 3-(8-(piperidin-4-ylthio)isoquinolin-6-yl)benzonitrile] | ≥ 50 | ≥ 50 |  |  |
| N#Cc1cccc(-c2cc(SCCN)c3cnccc3c2)c1 [Example 1-s-2] | ≥ 50 | ≥ 50 |  |  |
| CC(=O)N1CC(Nc2cc(-c3cccc(C#N)c3)cc3ccncc23)C1 [Example 2-N-301] | ≥ 50 | ≥ 50 | ≥ 50 |  |
| N#Cc1ccc(C(=O)N2CC(Nc3cc(-c4ccc(F)c(C#N)c4)cc4ccncc34)C2)cn1 [Example 2-N-402] | ≥ 50 | ≥ 50 | ≥ 50 |  |
| CC(=O)N1CC(COc2cc(-c3cccc(C#N)c3)cc3ccncc23)C1 [Example 2-o-140] | ≥ 50 | ≥ 50 |  |  |
| Cn1cncc1C(=O)N1CC(COc2cc(-c3cccc(C#N)c3)cc3ccncc23)C1 [Example 2-o-141] | ≥ 50 | ≥ 50 |  |  |
| O=C(c1ccnnc1)N1CCC(Oc2cc(-c3cccnc3)cc3ccncc23)CC1 [Example 2-o-232] | ≥ 50 |  |  |  |
| O=C(Cn1ccnc1)N1CCC(Oc2cc(-c3cccnc3)cc3ccncc23)CC1 [Example 2-o-234] | ≥ 50 |  |  |  |
| O=C(Cc1cccnc1)N1CCC(Oc2cc(-c3cccnc3)cc3ccncc23)CC1 [Example 2-o-235] | ≥ 50 |  |  |  |
| O=C(CO)N1CCC(Oc2cc(-c3cccnc3)cc3ccncc23)CC1 [Example 2-o-237] | ≥ 50 |  |  |  |
| O=S(=O)(C1CC1)N1CCC(Nc2cc(-c3ccoc3)cc3ccncc23)CC1 [Example 3-NP-11] |  | ≥ 50 | ≥ 50 |  |
| CCOc1ccc(-c2cc(NC3CCN(S(=O)(=O)CC)CC3)c3cnccc3c2)cc1F [Example 3-NP-87] | ≥ 50 | ≥ 50 | ≥ 50 |  |
| CS(=O)(=O)N1CCCC(COc2cc(-c3cccc(C#N)c3)cc3ccncc23)C1 (stereo not drawn) [Example 3-o-18] |  | ≥ 50 | ≥ 50 |  |

| Structure (SMILES) | IKKβ activity inhibiting ability (IKKβ) [%] | TNF-α production suppression rate [1] [%] | TNF-α production suppression rate [2] [%] | TNF-α production suppression rate [3] [%] |
| --- | --- | --- | --- | --- |
| CS(=O)(=O)N1CCC(Sc2cc(-c3cccc(C#N)c3)cc3ccncc23)CC1 [Example 3-s-1] |  | ≥ 50 | ≥ 50 |  |
| COc1cccc(-c2cc(NC3CCN(S(C)(=O)=O)CC3)c3cnccc3c2)c1 [Example 4-NP-53] |  |  |  | ≥ 50 |
| Cc1ccc(-c2cc(NC3CCN(S(C)(=O)=O)CC3)c3cnccc3c2)cc1C#N [Example 4-NP-61] |  |  |  | ≥ 50 |
| CCS(=O)(=O)N1CCC(Nc2cc(-c3ccc(Cl)nc3)cc3ccncc23)CC1 [Example 4-NP-179] |  |  |  | ≥ 50 |
| CCS(=O)(=O)N1CCC(Nc2cc(-c3ccnc(N)c3)cc3ccncc23)CC1 [Example 4-NP-189] |  |  |  | ≥ 50 |
| CCS(=O)(=O)N1CCC(Nc2cc(-c3cncc(C)c3)cc3ccncc23)CC1 [Example 4-NP-191] |  |  |  | ≥ 50 |
| CS(=O)(=O)N1CCC(Nc2cc(-c3ccc4[nH]ncc4c3)cc3ccncc23)CC1 [Example 4-NP-201] |  |  |  | ≥ 50 |
| CS(=O)(=O)N1CCC(Nc2cc(-c3cncc(F)c3)cc3ccncc23)CC1 [Example 4-NP-204] |  |  |  | ≥ 50 |
| CCCn1cc(-c2cc(NC3CCN(S(C)(=O)=O)CC3)c3cnccc3c2)cn1 [Example 4-NP-207] |  |  |  | ≥ 50 |
| CS(=O)(=O)N1CCC(Nc2cc(-c3ccncc3F)cc3ccncc23)CC1 [Example 4-NP-210] |  |  |  | ≥ 50 |
| COc1cncc(-c2cc(NC3CCN(S(C)(=O)=O)CC3)c3cnccc3c2)c1 [Example 4-NP-232] |  |  |  | ≥ 50 |
| Cc1cc(-c2cc(NC3CCN(S(C)(=O)=O)CC3)c3cnccc3c2)cnc1N1CCOCC1 [Example 4-NP-235] |  |  |  | ≥ 50 |
| CCNc1ccc(-c2cc(NC3CCN(S(C)(=O)=O)CC3)c3cnccc3c2)cn1 [Example 4-NP-256] |  |  |  | ≥ 50 |
| CS(=O)(=O)N1CCC(Nc2cc(-c3cncc(C(F)(F)F)c3)cc3ccncc23)CC1 [Example 4-NP-259] |  |  |  | ≥ 50 |
| CS(=O)(=O)N1CCC(Nc2cc(-c3ccc(-n4cccn4)cc3)cc3ccncc23)CC1 [Example 4-NP-273] |  |  |  | ≥ 50 |
| CS(=O)(=O)N1CCC(Nc2cc(-c3cnccc3F)cc3ccncc23)CC1 [Example 4-NP-275] |  |  |  | ≥ 50 |
| CCS(=O)(=O)N1CCC(Nc2cc(-c3ccc4oc(=O)n(C)c4c3)cc3ccncc23)CC1 [Example 4-NP-301] |  |  |  | ≥ 50 |
| CCS(=O)(=O)N1CCC(Nc2cc(-c3cncc(Cl)c3)cc3ccncc23)CC1 [Example 4-NP-332] |  |  |  | ≥ 50 |
| CCn1cc(-c2cc(NC3CCN(S(=O)(=O)CC)CC3)c3cnccc3c2)cn1 [Example 4-NP-334] |  |  |  | ≥ 50 |
| CCS(=O)(=O)N1CCC(Nc2cc(-c3ccnc(C)c3F)cc3ccncc23)CC1 [Example 4-NP-404] | ≥ 50 | ≥ 50 |  |  |
| CNCc1cccc(-c2cc(NC3CCN(S(C)(=O)=O)CC3)c3cnccc3c2)c1 [Example 4-NP-423, 6-(3-((methylamino)methyl)phenyl)-N-(1-(methylsulfonyl)piperidin-4-yl)isoquinolin-8-amine] |  |  |  | ≥ 50 |
| CS(=O)(=O)c1ccc(-c2cc(NC3CCN(S(C)(=O)=O)CC3)c3cnccc3c2)cc1 [Example 4-NP-434] |  |  |  | ≥ 50 |
| N#Cc1cccc(-c2cc(OC3CCN(Cc4cccnc4)CC3)c3cnccc3c2)c1 [Example 4-o-1] | ≥ 50 |  |  |  |
| CN1CC(Oc2cc(-c3cccc(C#N)c3)cc3ccncc23)C1 [Example 4-o-4] |  | ≥ 50 | ≥ 50 |  |
| CCNC(=O)N1CCC(Oc2cc(-c3cccc(C#N)c3)cc3ccncc23)CC1 [Example 5-o-2] | ≥ 50 |  |  |  |
| N#Cc1cccc(-c2cc(OC3CN(C(=N)N)C3)c3cnccc3c2)c1 [Example 7-o-1, 3-(6-(3-cyanophenyl)isoquinolin-8-yloxy)azetidine-1-carboximidamide] | ≥ 50 | ≥ 50 |  |  |
